PubChem BioAssay AID1259327 | Drosophila RNAi Screening Center – 2017
Here is one part, drawn at random, of about 3,100 reagents. 378 of all reagents (12%) count as active. 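Hits include both directions; z-score sign shows ATP rise or fall; raw luminescence values are not plate-normalised.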 A number with no mark means an inactive call. A plus sign joins genes that one reagent is predicted to hit. The record does not give: the amount of reagent.

Screen: 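Baseline ATP after transmembrane-protein gene knock-down with water vehicle only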
System: Drosophila S2R+ cells
Reagent: long dsRNA against Drosophila genes
Duration: 5 days (water added on day 4, read one day later)
Conditions: water added as vehicle, no metal, one day before read-out
Detection: 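Luciferase ATP signal per well, normalised to plate mean, duplicate average converted to z-score across plates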
Scale: ATP z-score: higher = more total ATP than typical wells; ATP luminescence: higher = more total ATP
Active means: 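Called active when the ATP z-score exceeds 1.5 or falls below -1.5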
Meaning of the calls: active = hit: ATP up or down; inactive = no clear ATP change

Knock-down of mthl3 + mthl4 [DRSC25990] gave: ATP z-score, duplicate mean 0.375; ATP luminescence, replicate 1 (RLU) = 9.17e5; ATP luminescence, replicate 2 (RLU) = 7.62e5.
With knock-down of CG31106 [DRSC14655], the screen gave ATP z-score, duplicate mean 0.0182; ATP luminescence, replicate 1 (RLU) = 3.15e5; ATP luminescence, replicate 2 (RLU) = 7.25e5.
Knock-down of Fur2 [DRSC19817] gave: ATP z-score, duplicate mean -0.735; ATP luminescence, replicate 1 (RLU) = 6.56e5; ATP luminescence, replicate 2 (RLU) = 7.11e5.
mthl13 [DRSC05238] scored ATP z-score, duplicate mean 0.0643; ATP luminescence, replicate 1 (RLU) = 7.47e5; ATP luminescence, replicate 2 (RLU) = 7.52e5.
With knock-down of CG9536 [DRSC03254], the screen gave ATP z-score, duplicate mean -0.254; ATP luminescence, replicate 1 (RLU) = 4.39e5; ATP luminescence, replicate 2 (RLU) = 4.85e5.
After knock-down of CG9536 [DRSC24736] the results were ATP z-score, duplicate mean -0.563; ATP luminescence, replicate 1 (RLU) = 8.49e5; ATP luminescence, replicate 2 (RLU) = 7.11e5.
With knock-down of SppL [DRSC15228], the screen gave ATP z-score, duplicate mean 0.291; ATP luminescence, replicate 1 (RLU) = 3.05e5; ATP luminescence, replicate 2 (RLU) = 8.12e5.
With knock-down of tadr [DRSC03177] the results were ATP z-score, duplicate mean 0.338; ATP luminescence, replicate 1 (RLU) = 7.59e5; ATP luminescence, replicate 2 (RLU) = 7.75e5.
After knock-down of tadr [DRSC39590], the record shows ATP z-score, duplicate mean 0.682; ATP luminescence, replicate 1 (RLU) = 4.73e5; ATP luminescence, replicate 2 (RLU) = 5.51e5.
After knock-down of CG44247 + veg (retired record) [DRSC07714] the results were ATP z-score, duplicate mean -0.125; ATP luminescence, replicate 1 (RLU) = 6.97e5; ATP luminescence, replicate 2 (RLU) = 5.19e5.
NijA [DRSC10637] gave ATP z-score, duplicate mean -0.102; ATP luminescence, replicate 1 (RLU) = 9.14e5; ATP luminescence, replicate 2 (RLU) = 8.53e5.
Vha100-1 [DRSC14148] showed ATP z-score, duplicate mean 0.696; ATP luminescence, replicate 1 (RLU) = 7.81e5; ATP luminescence, replicate 2 (RLU) = 7.74e5.
With knock-down of Vha100-1 [DRSC39862], the screen gave ATP z-score, duplicate mean -0.316; ATP luminescence, replicate 1 (RLU) = 5.00e5; ATP luminescence, replicate 2 (RLU) = 6.21e5.

An excerpt of the results above:
Fur2 [DRSC19817] → ATP z-score, duplicate mean: -0.735; ATP luminescence, replicate 1 (RLU): 6.56e5; ATP luminescence, replicate 2 (RLU): 7.11e5
mthl13 [DRSC05238] → ATP z-score, duplicate mean: 0.0643; ATP luminescence, replicate 1 (RLU): 7.47e5; ATP luminescence, replicate 2 (RLU): 7.52e5
